Source: patent publication US20240262919A1 (SHANGHAITECH UNIVERSITY, published 2024)
Positions count from the first letter of the chain named. Results are given in words; binding and its absence hold for the method and conditions named. Some entries that bind do so weakly or less than the wild type. For part of these data: Sequences can lack the tags named with a protein.

T1: antigen of the affinity maturation selections of antibody 3131 (IL-18Rβ, construct not named) (UniProt O95256)
T1 sequence (looked up): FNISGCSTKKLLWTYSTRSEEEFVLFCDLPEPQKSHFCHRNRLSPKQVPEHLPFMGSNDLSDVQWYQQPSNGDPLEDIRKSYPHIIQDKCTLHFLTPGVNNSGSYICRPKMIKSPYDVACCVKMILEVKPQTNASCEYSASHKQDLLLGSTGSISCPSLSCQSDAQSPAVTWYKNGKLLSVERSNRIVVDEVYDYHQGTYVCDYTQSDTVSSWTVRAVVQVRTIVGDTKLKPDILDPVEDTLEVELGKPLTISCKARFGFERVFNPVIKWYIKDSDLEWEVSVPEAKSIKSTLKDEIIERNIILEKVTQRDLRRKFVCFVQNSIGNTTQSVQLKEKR

T2: human IL-18Rβ ECD Fc fusion (118-AP-100, R&D Systems) (human) (UniProt O95256)
T2 sequence: T1 sequence (looked up)

B1: 3131 AM2-10 (Fab, V domains shown)
VH: EVQLVESGGGLVQPGGSLRLSCAASGFNLYYSSMHWVRQAPGKGLEWVASIYSSNGNTGYADSVKGRFTISADTSKNTAYLQMNSLRAEDTAVYYCARSSFSHGYGWYGLDYWGQGTLVTVSS
VL: DIQMTQSPSSLSASVGDRVTITCRASQSVSSAVAWYQQKPGKAPKLLIYSASSLYSGVPSRFSGSRSGTDFTLTISSLQPEDFATYYCQQYGYHYAGLITFGQGTKVEIK
B2: 3131 AM2-O-24 (Fab, V domains shown)
VH: B1 VH with N28T, N55G, N57S, G59S
VL: B1 VL with K45R, S50G, Y95D
B3: 3131 AM2-O-39 (Fab, V domains shown)
VH: B1 VH with N55G, N57S, G59S
VL: B1 VL with K45R, S50G, Y95G
B4: 3131 AM2-O-16 (Fab, V domains shown)
VH: B1 VH with N28T, N55G, N57S, G59S
VL: B1 VL with K45R, Y95D
B5: 3131 AM2-O-43 (Fab, V domains shown)
VH: B1 VH with N55S, N57D, G59H
VL: B1 VL with K45R, S50G, Y95G
B6: 3131 AM2-O-25 (Fab, V domains shown)
VH: B1 VH with N28D, N55G, N57S, G59S
VL: B1 VL with K45R, S50G, Y95D
B7: 3131 AM2-O-26 (Fab, V domains shown)
VH: B1 VH with N28S, N55G, N57S, G59S
VL: B1 VL with K45R, S50G, Y95D
B8: 3131 AM2-O-22 (Fab, V domains shown)
VH: B1 VH with N28S, N55S, N57D, G59H
VL: B1 VL with K45R, Y95D
B9: 3131 AM2-O-30 (Fab, V domains shown)
VH: B1 VH with N28S, N55S, N57D, G59H
VL: B1 VL with K45R, S50G, Y95D
B10: 3131 AM2-O-28 (Fab, V domains shown)
VH: B1 VH with N28T, N55S, N57D, G59H
VL: B1 VL with K45R, S50G, Y95D
B11: 3131 AM2-16 (Fab, V domains shown)
VH: B1 VH with N55Y, N57Y, G59Y
VL: B1 VL with A51T
B12: 3131 AM2-O-34 (Fab, V domains shown)
VH: B1 VH with N28S, N55G, N57S, G59S
VL: B1 VL with K45R, Y95G
B13: 3131 AM2-O-45 (Fab, V domains shown)
VH: B1 VH with N28D, N55S, N57D, G59H
VL: B1 VL with K45R, S50G, Y95G
B14: 3131 AM2-O-23 (Fab, V domains shown)
VH: B1 VH with N55G, N57S, G59S
VL: B1 VL with K45R, S50G, Y95D
B15: 3131 AM2-O-38 (Fab, V domains shown)
VH: B1 VH with N28S, N55S, N57D, G59H
VL: B1 VL with K45R, Y95G
B16: 3131 AM2-O-35 (Fab, V domains shown)
VH: B1 VH with N55S, N57D, G59H
VL: B1 VL with K45R, Y95G
B17: 3131 AM2-O-37 (Fab, V domains shown)
VH: B1 VH with N28D, N55S, N57D, G59H
VL: B1 VL with K45R, Y95G
B18: 3131 AM2-O-42 (Fab, V domains shown)
VH: B1 VH with N28S, N55G, N57S, G59S
VL: B1 VL with K45R, S50G, Y95G
B19: 3131 AM2-O-21 (Fab, V domains shown)
VH: B1 VH with N28D, N55S, N57D, G59H
VL: B1 VL with K45R, Y95D
B20: 3131 AM2-O-18 (Fab, V domains shown)
VH: B1 VH with N28S, N55G, N57S, G59S
VL: B1 VL with K45R, Y95D
B21: 3131 AM2-O-46 (Fab, V domains shown)
VH: B1 VH with N28S, N55S, N57D, G59H
VL: B1 VL with K45R, S50G, Y95G
B22: 3131 AM2-O-17 (Fab, V domains shown)
VH: B1 VH with N28D, N55G, N57S, G59S
VL: B1 VL with K45R, Y95D
B23: 3131 AM2-O-40 (Fab, V domains shown)
VH: B1 VH with N28T, N55G, N57S, G59S
VL: B1 VL with K45R, S50G, Y95G
B24: 3131 AM2-O-32 (Fab, V domains shown)
VH: B1 VH with N28T, N55G, N57S, G59S
VL: B1 VL with K45R, Y95G
B25: 3131 AM2-O-31 (Fab, V domains shown)
VH: B1 VH with N55G, N57S, G59S
VL: B1 VL with K45R, Y95G
B26: 3131 AM2-O-20 (Fab, V domains shown)
VH: B1 VH with N28T, N55S, N57D, G59H
VL: B1 VL with K45R, Y95D
B27: 3131 AM2-O-19 (Fab, V domains shown)
VH: B1 VH with N55S, N57D, G59H
VL: B1 VL with K45R, Y95D
B28: 3131 AM2-O-41 (Fab, V domains shown)
VH: B1 VH with N28D, N55G, N57S, G59S
VL: B1 VL with K45R, S50G, Y95G
B29: 3131 AM2-O-33 (Fab, V domains shown)
VH: B1 VH with N28D, N55G, N57S, G59S
VL: B1 VL with K45R, Y95G
B30: 3131 AM2-11 (Fab, V domains shown)
VH: B1 VH
VL: B1 VL
B31: 3131 AM2-O-44 (Fab, V domains shown)
VH: B1 VH with N28T, N55S, N57D, G59H
VL: B1 VL with K45R, S50G, Y95G
B32: 3131 AM2-O-29 (Fab, V domains shown)
VH: B1 VH with N28D, N55S, N57D, G59H
VL: B1 VL with K45R, S50G, Y95D
B33: 3131 AM2-O-36 (Fab, V domains shown)
VH: B1 VH with N28T, N55S, N57D, G59H
VL: B1 VL with K45R, Y95G
B34: 3131 AM2-O-27 (Fab, V domains shown)
VH: B1 VH with N55S, N57D, G59H
VL: B1 VL with K45R, S50G, Y95D
B35: 3131 AM2-29 (Fab, V domains shown)
VH: B1 VH with N55Y, N57Y, G59Y
VL: B1 VL with A51T

Target: T1, antigen of the affinity maturation selections of antibody 3131 (IL-18Rβ, construct not named)
Assay: affinity-based solution-phase phage display selection, decreasing antigen concentration

Row | binding | Binder
1 | binds | B1
2 | binds | B2
3 | binds | B3
4 | binds | B4
5 | binds | B5
6 | binds | B6
7 | binds | B7
8 | binds | B8
9 | binds | B9
10 | binds | B10
11 | binds | B11
12 | binds | B12
13 | binds | B13
14 | binds | B14
15 | binds | B15
16 | binds | B16
17 | binds | B17
18 | binds | B18

Row | binding | Binder
19 | binds | B19
20 | binds | B20
21 | binds | B21
22 | binds | B22
23 | binds | B23
24 | binds | B24
25 | binds | B25
26 | binds | B26
27 | binds | B27
28 | binds | B28
29 | binds | B29
30 | binds | B30
31 | binds | B31
32 | binds | B32
33 | binds | B33
34 | binds | B34
35 | binds | B35

Target: T2, human IL-18Rβ ECD Fc fusion (118-AP-100, R&D Systems) (human)
Assay: ELISA on recombinant human IL-18Rβ, normalised OD 450 nm, Fab with PBS or with saturating IgG 3131 [top plot]

Row | binding | Binder
36 | binds | B1
37 | binds | B30

Target: T2, human IL-18Rβ ECD Fc fusion (118-AP-100, R&D Systems) (human)
Assay: ELISA on recombinant human IL-18Rβ, normalised OD 450 nm, Fab with PBS or with saturating IgG 3131 [middle plot]

Row | binding | Binder
38 | binds | B11
39 | binds | B35
